Results deposited as PubChem BioAssay AID1259254 (NCATS, 2017).
The whole screen tested about 59,000 reagents; this is a part drawn at random. About 1,550 of them (2.6%) count as active. 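G2 share is only a proxy for re-replication; each gene was hit by three separate siRNAs, and active genes were retested.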 A number with no mark means an inactive call. The numbers tell different reagents against one gene apart. Not all columns of the deposit are shown. Not given: the amount of reagent.

Screen: 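Finding genes that stop cells copying their DNA twice in one cycle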 (primary screen)
Cell system: human HCT116 colorectal cancer cells
Reagents: single siRNA against human genes
Time to read-out: 3 days
Detection: 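Nuclei stained with Hoechst and imaged; cell-cycle phase assigned by DNA content; G2 share scaled per plate, non-targeting siRNA 0%, GMNN siRNA 100%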
Reading the numbers: G2 robust z-score and G2 cells, % of GMNN control: higher = more G2 cells, more excess DNA replication
Hit rule: 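Active siRNAs have a G2 robust z of 5 or more median absolute deviations over the median, which in these data means about 38% or higher of GMNN control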

| gene | siRNA no. | G2 robust z-score | G2 cells, % of GMNN control |
| --- | --- | --- | --- |
| SPRYD3 | 1 | -0.468 | -0.323 |
| SPRYD3 | 2 | -0.479 | -0.404 |
| SPRYD3 | 3 | -0.282 | 0.982 |
| NEU4 | 1 | -0.939 | -3.64 |
| NEU4 | 2 | 0.306 | 5.12 |
| NEU4 | 3 | -1.24 | -5.77 |
| RPS20 | 1 | 8.08 (active) | 59.8 |
| RPS20 | 2 | 4.52 | 34.8 |
| RPS20 | 3 | 0.737 | 8.15 |
| PTGES3P1 | 1 | 0.719 | 8.03 |
| PTGES3P1 | 2 | 2.08 | 17.6 |
| PTGES3P1 | 3 | -0.137 | 2 |
| FBP2 | 1 | -0.67 | -1.75 |
| FBP2 | 2 | 1.61 | 14.3 |
| FBP2 | 3 | -0.843 | -2.96 |
| CHMP2B | 1 | -0.208 | 1.5 |
| CHMP2B | 2 | -0.0352 | 2.72 |
| CHMP2B | 3 | -0.0611 | 2.54 |

Entries listed above marked active (1):
| gene | siRNA no. | G2 robust z-score | G2 cells, % of GMNN control |
| --- | --- | --- | --- |
| RPS20 | 1 | 8.08 (active) | 59.8 |

Continued:
| gene | siRNA no. | G2 robust z-score | G2 cells, % of GMNN control |
| --- | --- | --- | --- |
| PXYLP1 | 1 | 1.69 | 14.9 |
| PXYLP1 | 2 | 1.41 | 12.9 |
| PXYLP1 | 3 | 0.571 | 6.99 |
| DUOX1 | 1 | 2.39 | 19.8 |
| DUOX1 | 2 | -0.0126 | 2.88 |
| DUOX1 | 3 | -0.498 | -0.539 |
| CMSS1 | 1 | -0.13 | 2.05 |
| CMSS1 | 2 | -0.745 | -2.27 |
| CMSS1 | 3 | -0.0783 | 2.42 |
| NFKBIL1 | 1 | -0.602 | -1.27 |
| NFKBIL1 | 2 | -1.24 | -5.77 |
| NFKBIL1 | 3 | -1.36 | -6.59 |
